Laboratory results from the supplement of paper PMC12823440, “Inhibitors supercharge kinase turnover through native proteolytic circuits” (Nature, 2025).
Where a name gives a salt, the structure may show the parent alone. Some of the results follow. The calls rarely recur for the same compound in another form.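 In K562 cells expressing nanoluciferase-fused kinases, luminescence was recorded at 4 h intervals between 2 and 18 h, normalized as percent of control with DMSO at 100% and a positive control at 0%. A significant (2 sigma) signal drop marks a time point as decreased. The authors' rule for a hit is not shown and takes in more than the number of time points.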

Protein sequences, listed by entry. Tags and fused reporters are not part of them. Lines headed by an entry give the natural chain unless they say otherwise; changes in a name come on top.
UniProt Q15208: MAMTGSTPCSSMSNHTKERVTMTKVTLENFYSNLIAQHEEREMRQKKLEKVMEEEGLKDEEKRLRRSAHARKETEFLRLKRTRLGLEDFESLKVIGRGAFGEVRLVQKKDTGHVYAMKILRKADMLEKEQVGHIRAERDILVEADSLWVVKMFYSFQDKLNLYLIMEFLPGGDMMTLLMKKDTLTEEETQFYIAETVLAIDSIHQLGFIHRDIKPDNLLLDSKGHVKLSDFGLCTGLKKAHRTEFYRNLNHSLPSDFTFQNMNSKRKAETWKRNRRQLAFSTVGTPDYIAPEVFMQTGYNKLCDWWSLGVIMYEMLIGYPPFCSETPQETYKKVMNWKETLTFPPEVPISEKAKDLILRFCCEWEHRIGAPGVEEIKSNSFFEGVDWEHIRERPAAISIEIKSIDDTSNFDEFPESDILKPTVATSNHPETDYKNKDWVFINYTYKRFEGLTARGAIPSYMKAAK
UniProt P42680: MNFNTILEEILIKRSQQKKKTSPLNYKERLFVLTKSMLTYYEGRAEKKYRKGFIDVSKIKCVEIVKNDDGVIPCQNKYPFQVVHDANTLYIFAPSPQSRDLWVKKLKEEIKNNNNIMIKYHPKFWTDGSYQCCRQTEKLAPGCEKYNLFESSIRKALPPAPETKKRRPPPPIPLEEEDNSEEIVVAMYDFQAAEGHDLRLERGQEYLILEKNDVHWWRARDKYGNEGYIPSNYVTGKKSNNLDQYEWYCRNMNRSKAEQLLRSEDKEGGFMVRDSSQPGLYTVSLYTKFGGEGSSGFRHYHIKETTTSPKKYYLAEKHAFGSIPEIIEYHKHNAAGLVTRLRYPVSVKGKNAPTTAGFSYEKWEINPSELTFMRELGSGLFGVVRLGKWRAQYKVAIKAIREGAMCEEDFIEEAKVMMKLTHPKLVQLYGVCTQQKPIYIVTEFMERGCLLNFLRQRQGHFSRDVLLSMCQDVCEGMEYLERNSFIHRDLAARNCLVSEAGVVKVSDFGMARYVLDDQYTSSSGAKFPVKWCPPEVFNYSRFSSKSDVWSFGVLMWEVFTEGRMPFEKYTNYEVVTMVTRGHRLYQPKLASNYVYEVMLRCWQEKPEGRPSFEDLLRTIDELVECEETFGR
UniProt Q6PHR2: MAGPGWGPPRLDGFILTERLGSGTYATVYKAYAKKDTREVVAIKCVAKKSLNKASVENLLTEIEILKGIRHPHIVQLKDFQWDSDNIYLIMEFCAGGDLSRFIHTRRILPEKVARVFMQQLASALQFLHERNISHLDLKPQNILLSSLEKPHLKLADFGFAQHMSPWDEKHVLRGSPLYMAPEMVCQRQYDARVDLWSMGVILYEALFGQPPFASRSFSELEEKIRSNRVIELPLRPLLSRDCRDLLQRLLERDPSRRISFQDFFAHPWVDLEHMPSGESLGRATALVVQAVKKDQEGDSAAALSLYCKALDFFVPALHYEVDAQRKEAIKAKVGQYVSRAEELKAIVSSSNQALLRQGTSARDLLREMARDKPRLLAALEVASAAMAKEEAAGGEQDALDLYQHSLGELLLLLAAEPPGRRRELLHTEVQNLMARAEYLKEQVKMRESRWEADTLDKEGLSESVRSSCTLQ
UniProt P31749: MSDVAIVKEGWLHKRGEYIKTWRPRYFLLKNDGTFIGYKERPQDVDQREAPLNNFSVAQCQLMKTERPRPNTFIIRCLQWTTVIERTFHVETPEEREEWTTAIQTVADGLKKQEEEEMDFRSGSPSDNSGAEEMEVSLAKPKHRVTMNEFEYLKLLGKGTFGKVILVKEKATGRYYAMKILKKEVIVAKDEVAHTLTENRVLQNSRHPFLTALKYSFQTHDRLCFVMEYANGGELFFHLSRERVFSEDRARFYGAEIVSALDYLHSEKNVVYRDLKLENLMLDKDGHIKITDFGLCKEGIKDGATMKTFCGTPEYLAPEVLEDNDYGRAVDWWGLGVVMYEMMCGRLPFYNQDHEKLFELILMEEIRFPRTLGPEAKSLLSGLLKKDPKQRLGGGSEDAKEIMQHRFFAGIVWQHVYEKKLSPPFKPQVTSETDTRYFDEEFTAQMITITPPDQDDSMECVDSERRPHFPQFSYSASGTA
UniProt P10398: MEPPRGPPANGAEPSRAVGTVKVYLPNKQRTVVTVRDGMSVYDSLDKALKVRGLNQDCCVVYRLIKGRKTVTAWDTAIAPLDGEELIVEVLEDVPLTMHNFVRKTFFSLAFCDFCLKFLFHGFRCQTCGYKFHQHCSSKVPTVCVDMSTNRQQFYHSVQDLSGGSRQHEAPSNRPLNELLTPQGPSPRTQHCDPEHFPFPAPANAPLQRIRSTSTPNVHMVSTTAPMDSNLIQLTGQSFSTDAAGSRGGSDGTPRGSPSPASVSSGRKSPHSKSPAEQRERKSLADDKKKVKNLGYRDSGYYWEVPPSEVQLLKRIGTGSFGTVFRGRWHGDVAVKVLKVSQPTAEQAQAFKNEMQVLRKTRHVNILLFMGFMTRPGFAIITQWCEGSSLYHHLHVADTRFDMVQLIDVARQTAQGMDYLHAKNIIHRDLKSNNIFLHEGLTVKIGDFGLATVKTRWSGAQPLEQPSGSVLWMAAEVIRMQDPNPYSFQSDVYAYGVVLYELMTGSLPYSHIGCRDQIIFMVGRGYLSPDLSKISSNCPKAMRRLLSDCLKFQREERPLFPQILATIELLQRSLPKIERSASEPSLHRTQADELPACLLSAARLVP
UniProt O14965: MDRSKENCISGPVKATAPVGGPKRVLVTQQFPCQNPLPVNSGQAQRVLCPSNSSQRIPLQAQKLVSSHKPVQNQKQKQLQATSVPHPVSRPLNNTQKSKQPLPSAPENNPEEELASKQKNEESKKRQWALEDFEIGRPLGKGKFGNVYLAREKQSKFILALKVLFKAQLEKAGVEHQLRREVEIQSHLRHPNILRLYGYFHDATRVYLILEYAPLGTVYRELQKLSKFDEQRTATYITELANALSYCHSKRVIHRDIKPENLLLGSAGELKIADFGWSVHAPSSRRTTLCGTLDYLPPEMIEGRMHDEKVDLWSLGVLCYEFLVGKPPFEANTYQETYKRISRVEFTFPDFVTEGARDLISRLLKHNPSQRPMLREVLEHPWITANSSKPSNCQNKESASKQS
UniProt Q96GD4, whole entry: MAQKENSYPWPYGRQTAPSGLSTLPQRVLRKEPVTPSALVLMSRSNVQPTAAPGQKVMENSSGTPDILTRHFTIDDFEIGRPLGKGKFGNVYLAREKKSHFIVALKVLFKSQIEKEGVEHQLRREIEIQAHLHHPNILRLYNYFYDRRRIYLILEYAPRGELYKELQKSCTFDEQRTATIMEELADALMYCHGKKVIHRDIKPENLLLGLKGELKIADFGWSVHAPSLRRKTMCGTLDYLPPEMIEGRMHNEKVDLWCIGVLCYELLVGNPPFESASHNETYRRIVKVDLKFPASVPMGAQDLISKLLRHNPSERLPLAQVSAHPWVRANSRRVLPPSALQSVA
UniProt Q9UQB9: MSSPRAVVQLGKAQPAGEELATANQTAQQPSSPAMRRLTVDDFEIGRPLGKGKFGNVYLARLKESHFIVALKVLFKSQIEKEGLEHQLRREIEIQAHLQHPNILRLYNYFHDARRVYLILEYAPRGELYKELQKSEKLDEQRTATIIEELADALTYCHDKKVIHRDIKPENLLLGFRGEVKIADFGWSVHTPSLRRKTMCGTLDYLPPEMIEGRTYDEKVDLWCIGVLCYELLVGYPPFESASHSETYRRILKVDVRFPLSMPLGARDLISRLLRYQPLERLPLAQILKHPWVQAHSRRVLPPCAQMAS
UniProt P51451: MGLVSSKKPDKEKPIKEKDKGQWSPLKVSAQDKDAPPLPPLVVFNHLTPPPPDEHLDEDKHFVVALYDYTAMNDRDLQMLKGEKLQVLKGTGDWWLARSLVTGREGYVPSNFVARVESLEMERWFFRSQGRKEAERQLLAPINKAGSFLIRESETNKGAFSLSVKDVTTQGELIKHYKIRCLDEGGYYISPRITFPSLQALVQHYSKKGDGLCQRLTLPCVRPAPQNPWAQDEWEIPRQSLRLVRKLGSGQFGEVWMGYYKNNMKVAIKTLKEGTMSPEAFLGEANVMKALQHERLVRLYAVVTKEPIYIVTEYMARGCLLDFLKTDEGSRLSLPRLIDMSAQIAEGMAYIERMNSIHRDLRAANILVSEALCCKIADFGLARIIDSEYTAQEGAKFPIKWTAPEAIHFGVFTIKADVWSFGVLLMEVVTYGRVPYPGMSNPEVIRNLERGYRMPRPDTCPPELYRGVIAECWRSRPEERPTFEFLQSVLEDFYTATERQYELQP
UniProt P51813: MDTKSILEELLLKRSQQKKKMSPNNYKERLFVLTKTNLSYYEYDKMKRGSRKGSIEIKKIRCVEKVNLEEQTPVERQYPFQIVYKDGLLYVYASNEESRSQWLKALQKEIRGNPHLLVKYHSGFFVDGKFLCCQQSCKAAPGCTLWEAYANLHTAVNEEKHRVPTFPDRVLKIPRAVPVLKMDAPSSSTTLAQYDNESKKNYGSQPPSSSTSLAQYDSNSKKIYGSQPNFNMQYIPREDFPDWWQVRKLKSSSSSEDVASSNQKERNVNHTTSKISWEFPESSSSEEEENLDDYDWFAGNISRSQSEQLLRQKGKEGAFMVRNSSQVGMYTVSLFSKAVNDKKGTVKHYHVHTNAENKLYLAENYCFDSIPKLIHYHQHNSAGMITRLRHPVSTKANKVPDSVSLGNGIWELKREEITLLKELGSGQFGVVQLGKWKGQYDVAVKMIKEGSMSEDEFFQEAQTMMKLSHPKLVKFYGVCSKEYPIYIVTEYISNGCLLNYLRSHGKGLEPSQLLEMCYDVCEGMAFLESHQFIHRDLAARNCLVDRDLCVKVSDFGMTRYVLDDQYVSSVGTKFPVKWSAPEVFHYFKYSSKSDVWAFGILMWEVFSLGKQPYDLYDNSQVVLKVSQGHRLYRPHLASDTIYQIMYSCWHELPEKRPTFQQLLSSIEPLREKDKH
UniProt P15056, whole entry, looked up: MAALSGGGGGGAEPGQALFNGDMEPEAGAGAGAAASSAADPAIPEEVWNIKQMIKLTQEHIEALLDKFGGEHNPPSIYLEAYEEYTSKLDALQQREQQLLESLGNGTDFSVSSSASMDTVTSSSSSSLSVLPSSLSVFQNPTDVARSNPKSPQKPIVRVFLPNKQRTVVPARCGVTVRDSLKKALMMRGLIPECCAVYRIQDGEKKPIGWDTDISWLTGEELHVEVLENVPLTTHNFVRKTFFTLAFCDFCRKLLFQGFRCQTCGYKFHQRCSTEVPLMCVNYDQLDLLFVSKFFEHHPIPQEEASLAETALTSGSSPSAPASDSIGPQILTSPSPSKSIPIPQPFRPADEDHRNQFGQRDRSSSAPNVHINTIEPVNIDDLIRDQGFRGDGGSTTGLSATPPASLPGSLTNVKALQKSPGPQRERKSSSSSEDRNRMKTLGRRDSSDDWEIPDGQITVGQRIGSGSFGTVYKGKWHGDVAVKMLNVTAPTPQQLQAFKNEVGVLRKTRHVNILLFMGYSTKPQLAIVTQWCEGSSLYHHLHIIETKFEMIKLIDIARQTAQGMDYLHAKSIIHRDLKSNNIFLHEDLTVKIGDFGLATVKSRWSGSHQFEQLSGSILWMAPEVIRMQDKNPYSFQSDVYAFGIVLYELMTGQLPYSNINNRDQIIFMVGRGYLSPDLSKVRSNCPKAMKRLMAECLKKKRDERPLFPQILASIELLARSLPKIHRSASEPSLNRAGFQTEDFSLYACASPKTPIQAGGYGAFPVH
UniProt Q06187: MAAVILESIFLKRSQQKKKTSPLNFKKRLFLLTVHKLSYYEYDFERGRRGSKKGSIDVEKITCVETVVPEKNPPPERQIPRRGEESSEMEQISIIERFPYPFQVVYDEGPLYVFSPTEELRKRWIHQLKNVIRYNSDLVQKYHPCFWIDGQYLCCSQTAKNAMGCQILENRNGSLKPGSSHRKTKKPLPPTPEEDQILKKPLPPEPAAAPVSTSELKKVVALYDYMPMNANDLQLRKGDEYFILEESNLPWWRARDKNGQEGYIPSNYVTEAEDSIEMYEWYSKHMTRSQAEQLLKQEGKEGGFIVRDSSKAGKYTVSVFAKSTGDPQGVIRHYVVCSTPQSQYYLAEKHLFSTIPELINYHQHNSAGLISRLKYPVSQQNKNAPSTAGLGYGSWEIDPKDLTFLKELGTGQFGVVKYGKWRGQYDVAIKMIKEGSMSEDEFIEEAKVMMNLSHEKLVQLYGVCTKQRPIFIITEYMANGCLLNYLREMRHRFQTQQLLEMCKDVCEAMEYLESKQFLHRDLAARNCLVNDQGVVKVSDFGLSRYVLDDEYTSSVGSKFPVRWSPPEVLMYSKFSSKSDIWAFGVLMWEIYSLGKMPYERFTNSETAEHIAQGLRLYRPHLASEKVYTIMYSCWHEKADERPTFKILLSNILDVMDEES

How the values were obtained:
Details in all cases: K562; 2-18 h
STK38 = STK38 (UniProt Q15208); assay: kinase-Nluc reporter destabilization hit call (1 = scored as downregulated) (binary); higher = compound decreases kinase abundance
SYK = SYK (UniProt P43405); assay: as above
TEC = TEC (UniProt P42680); assay: as above
TYK2 = TYK2 (UniProt P29597); assay: as above
ULK3 = ULK3 (UniProt Q6PHR2); assay: as above
YES1 = YES1 (UniProt P07947); assay: as above
ZAK = ZAK (UniProt Q9NYL2); assay: as above
ZAP70 = ZAP70 (UniProt P43403); assay: as above
ABL1 = ABL1 (UniProt P00519); assay: number of time points (of 5) at which kinase-Nluc abundance scored as decreased, DMSO-normalised (count); higher = more persistent destabilization
AKT1 = AKT1 (UniProt P31749); assay: as above
ALK = ALK (UniProt Q9UM73); assay: as above
ARAF = ARAF (UniProt P10398); assay: as above
AURKA = AURKA (UniProt O14965); assay: as above
AURKB = AURKB (UniProt Q96GD4); assay: as above
AURKC = AURKC (UniProt Q9UQB9); assay: as above
BLK = BLK (UniProt P51451); assay: as above
BMX = BMX (UniProt P51813); assay: as above
BRAF = BRAF (UniProt P15056); assay: as above
BRAF_V600E = assay: as above
BTK = BTK (UniProt Q06187); assay: as above

Row | SMILES | kinase-Nluc reporter destabilization hit call (STK38) | kinase-Nluc reporter destabilization hit call (SYK) | kinase-Nluc reporter destabilization hit call (TEC) | kinase-Nluc reporter destabilization hit call (TYK2) | kinase-Nluc reporter destabilization hit call (ULK3) | kinase-Nluc reporter destabilization hit call (YES1) | kinase-Nluc reporter destabilization hit call (ZAK) | kinase-Nluc reporter destabilization hit call (ZAP70) | number of time points (ABL1) | number of time points (AKT1) | number of time points (ALK) | number of time points (ARAF) | number of time points (AURKA) | number of time points (AURKB) | number of time points (AURKC) | number of time points (BLK) | number of time points (BMX) | number of time points (BRAF) | number of time points (BRAF_V600E) | number of time points (BTK)
1 | CCN1CCN(c2ccc(Nc3cc(N(C)C(=O)Nc4c(Cl)c(OC)cc(OC)c4Cl)ncn3)cc2)CC1 [Infigratinib] (10 µM) | inactive: 0 | inactive: 0 | inactive: 0 | inactive: 0 | inactive: 0 | inactive: 0 | inactive: 0 | inactive: 0 | 0 | 0 | 0 | 0 | 0 | 0 | 0 | 0 | 0 | 0 | 0 | –
2 | Cc1ccc(S(=O)(=O)Nc2nc3ccccc3nc2Nc2ccc3nsnc3c2)cc1 [Pilaralisib analogue] (10 µM) | inactive: 0 | inactive: 0 | inactive: 0 | inactive: 0 | active: 1 | inactive: 0 | inactive: 0 | inactive: 0 | 2 | 0 | 0 | 0 | 0 | 0 | 1 | 0 | 0 | 5 | 0 | 4
3 | COc1cc(OC)c(F)c(COc2cnc(Nc3cnn(CCO)c3)nc2)c1F (2.5 µM) | inactive: 0 | inactive: 0 | inactive: 0 | inactive: 0 | inactive: 0 | inactive: 0 | inactive: 0 | inactive: 0 | 3 | 0 | 1 | 0 | 0 | 0 | 0 | 0 | 2 | 1 | 0 | 0
4 | Cc1cc(C(=O)Nc2cccc(C(=O)Nc3cccc(C(F)(F)F)c3)c2)on1 (10 µM) | inactive: 0 | inactive: 0 | inactive: 0 | inactive: 0 | inactive: 0 | inactive: 0 | inactive: 0 | inactive: 0 | 0 | 0 | 0 | 0 | 0 | 0 | 0 | 0 | 0 | 0 | 0 | 0
5 | CC(C)c1cnn2c(NCc3ccccc3)cc(NC[C@H]3CCNC[C@@H]3O)nc12 [Samuraciclib (hydrochloride)] (10 µM) | inactive: 0 | inactive: 0 | inactive: 0 | inactive: 0 | inactive: 0 | inactive: 0 | inactive: 0 | inactive: 0 | 0 | 0 | 0 | 0 | 0 | 0 | 0 | 0 | 0 | 0 | 0 | 0
6 | O=c1oc2ccccc2c(O)c1Cc1c(O)c2ccccc2oc1=O [Dicoumarol] (10 µM) | inactive: 0 | inactive: 0 | inactive: 0 | inactive: 0 | inactive: 0 | inactive: 0 | inactive: 0 | inactive: 0 | 0 | 0 | 0 | 0 | 0 | 0 | 0 | 0 | 0 | 0 | 0 | 0
7 | CCc1nc(-c2cccc(C)c2)c(-c2ccnc(NC(=O)c3ccccc3)c2)s1 (10 µM) | inactive: 0 | inactive: 0 | inactive: 0 | inactive: 0 | inactive: 0 | inactive: 0 | inactive: 0 | inactive: 0 | 0 | 0 | 0 | 0 | 0 | 0 | 0 | 0 | 0 | 0 | 0 | –
8 | O=C([O-])c1ccccc1O.[Na+] [Sodium Salicylate] (10 µM) | inactive: 0 | inactive: 0 | inactive: 0 | inactive: 0 | inactive: 0 | inactive: 0 | inactive: 0 | inactive: 0 | 0 | 0 | 0 | 0 | 0 | 0 | 0 | 0 | 0 | 0 | 0 | 0
9 | O=C(Nc1ccc(-c2ccnc(Nc3ccc(N4CCOCC4)cc3)n2)cc1)C1CCCN1 (stereo unspecified) (10 µM) | inactive: 0 | inactive: 0 | inactive: 0 | inactive: 0 | inactive: 0 | inactive: 0 | inactive: 0 | inactive: 0 | 0 | 0 | 0 | 0 | 0 | 0 | 0 | 0 | 0 | 0 | 0 | 0
10 | O=C1NCCc2[nH]c(-c3ccnc(-c4cnc5ccccc5c4)c3)cc21 (10 µM) | inactive: 0 | inactive: 0 | inactive: 0 | inactive: 0 | inactive: 0 | inactive: 0 | inactive: 0 | inactive: 0 | 0 | 0 | 0 | 0 | 0 | 0 | 0 | 0 | 0 | 0 | 0 | –
11 | Cc1c(NC(=O)c2cc3c(s2)CCCC3)cccc1-c1cn(C)c(=O)c(Nc2ccc([C@@H]3C(=O)N(C)CCN3C)cc2)n1 (10 µM) | inactive: 0 | inactive: 0 | inactive: 0 | inactive: 0 | inactive: 0 | inactive: 0 | inactive: 0 | inactive: 0 | 0 | 0 | 0 | 0 | 0 | 0 | 0 | 0 | 0 | 0 | 0 | –
12 | C=CC(=O)N1CCC[C@@H](n2nc(-c3ccc(Oc4ccccc4)cc3)c(C(N)=O)c2N)C1 [Btk inhibitor 2] (10 µM) | inactive: 0 | inactive: 0 | inactive: 0 | inactive: 0 | inactive: 0 | inactive: 0 | inactive: 0 | inactive: 0 | 0 | 0 | 0 | 0 | 0 | 0 | 0 | 0 | 0 | 0 | 0 | –
13 | CCN1CCN(Cc2ccc(C(=O)Nc3ccc(C)c(Oc4ccc5c(c4)CC(=O)N5)c3)cc2C(F)(F)F)CC1 (2.5 µM) | inactive: 0 | inactive: 0 | inactive: 0 | inactive: 0 | inactive: 0 | inactive: 0 | inactive: 0 | inactive: 0 | 2 | 1 | 2 | 0 | 1 | 2 | 0 | 0 | 3 | 1 | 3 | 0
14 | CCCS(=O)(=O)Nc1ccc(F)c(C(=O)c2c[nH]c3ncc(Cl)cc23)c1F (10 µM) | inactive: 0 | inactive: 0 | inactive: 0 | inactive: 0 | inactive: 0 | inactive: 0 | inactive: 0 | inactive: 0 | 3 | 0 | 0 | 0 | 0 | 0 | 0 | 0 | 0 | 0 | 0 | 0
15 | Nc1nc(OCC2CCCCC2)c2[nH]cnc2n1 (10 µM) | inactive: 0 | inactive: 0 | inactive: 0 | inactive: 0 | inactive: 0 | inactive: 0 | inactive: 0 | inactive: 0 | 0 | 0 | 0 | 0 | 0 | 0 | 0 | 0 | 0 | 0 | 0 | 0
16 | Oc1cc(O)cc(/C=C/c2ccc(O)c(O)c2)c1 [Piceatannol] (10 µM) | inactive: 0 | inactive: 0 | inactive: 0 | inactive: 0 | inactive: 0 | inactive: 0 | inactive: 0 | inactive: 0 | 3 | 0 | 2 | 0 | 2 | 0 | 0 | 0 | 4 | 0 | 3 | –
17 | CN(C)C[C@@H]1CCn2cc(c3ccccc32)C2=C(C(=O)NC2=O)c2cn(c3ccccc23)CCO1 [Ruboxistaurin (hydrochloride)] (10 µM) | inactive: 0 | inactive: 0 | inactive: 0 | inactive: 0 | inactive: 0 | inactive: 0 | inactive: 0 | inactive: 0 | 0 | 0 | 0 | 0 | 0 | 0 | 0 | 0 | 0 | 0 | 0 | –
18 | CC(C)(C)S(=O)(=O)c1cc2c(Nc3ccc4scnc4c3)ncnc2cc1OCCO (2.5 µM) | inactive: 0 | inactive: 0 | inactive: 0 | inactive: 0 | inactive: 0 | inactive: 0 | inactive: 0 | inactive: 0 | 0 | 0 | 0 | 0 | 0 | 0 | 0 | 0 | 0 | 0 | 0 | 0
19 | COc1nccc(-c2c(-c3ccc(F)cc3)ncn2C2CCC(O)CC2)n1 (stereo unspecified) (10 µM) | inactive: 0 | inactive: 0 | inactive: 0 | inactive: 0 | inactive: 0 | inactive: 0 | inactive: 0 | inactive: 0 | 0 | 0 | 0 | 0 | 0 | 0 | 0 | 0 | 0 | 0 | 0 | –
20 | O=S(=O)(NCCNC/C=C/c1ccc(Br)cc1)c1cccc2cnccc12 [H-89 (dihydrochloride)] (10 µM) | inactive: 0 | inactive: 0 | inactive: 0 | inactive: 0 | inactive: 0 | inactive: 0 | inactive: 0 | inactive: 0 | 0 | 0 | 0 | 0 | 0 | 0 | 0 | 0 | 0 | 0 | 0 | 0
21 | COc1cc(OC)cc(N(CCNC(C)C)c2ccc3ncc(-c4cnn(C)c4)nc3c2)c1 [Erdafitinib] (2.5 µM) | inactive: 0 | inactive: 0 | inactive: 0 | inactive: 0 | inactive: 0 | inactive: 0 | inactive: 0 | inactive: 0 | 0 | 0 | 0 | 0 | 0 | 0 | 0 | 0 | 0 | 0 | 0 | 0
22 | Cn1c(=O)n(-c2ccc(C(C)(C)C#N)cc2)c2c3cc(-c4cnc5ccccc5c4)ccc3ncc21 [Dactolisib (Tosylate)] (10 µM) | inactive: 0 | inactive: 0 | inactive: 0 | inactive: 0 | inactive: 0 | inactive: 0 | inactive: 0 | inactive: 0 | 5 | 0 | 2 | 0 | 4 | 4 | 3 | 3 | 3 | 5 | 4 | –

Reformatted as a markdown table: two of the compounds above.

| Row | SMILES | kinase-Nluc reporter destabilization hit call (STK38) | kinase-Nluc reporter destabilization hit call (SYK) | kinase-Nluc reporter destabilization hit call (TEC) | kinase-Nluc reporter destabilization hit call (TYK2) | kinase-Nluc reporter destabilization hit call (ULK3) | kinase-Nluc reporter destabilization hit call (YES1) | kinase-Nluc reporter destabilization hit call (ZAK) | kinase-Nluc reporter destabilization hit call (ZAP70) | number of time points (ABL1) | number of time points (AKT1) | number of time points (ALK) | number of time points (ARAF) | number of time points (AURKA) | number of time points (AURKB) | number of time points (AURKC) | number of time points (BLK) | number of time points (BMX) | number of time points (BRAF) | number of time points (BRAF_V600E) | number of time points (BTK) |
| --- | --- | --- | --- | --- | --- | --- | --- | --- | --- | --- | --- | --- | --- | --- | --- | --- | --- | --- | --- | --- | --- |
| 10 | O=C1NCCc2[nH]c(-c3ccnc(-c4cnc5ccccc5c4)c3)cc21 (10 µM) | inactive: 0 | inactive: 0 | inactive: 0 | inactive: 0 | inactive: 0 | inactive: 0 | inactive: 0 | inactive: 0 | 0 | 0 | 0 | 0 | 0 | 0 | 0 | 0 | 0 | 0 | 0 | – |
| 11 | Cc1c(NC(=O)c2cc3c(s2)CCCC3)cccc1-c1cn(C)c(=O)c(Nc2ccc([C@@H]3C(=O)N(C)CCN3C)cc2)n1 (10 µM) | inactive: 0 | inactive: 0 | inactive: 0 | inactive: 0 | inactive: 0 | inactive: 0 | inactive: 0 | inactive: 0 | 0 | 0 | 0 | 0 | 0 | 0 | 0 | 0 | 0 | 0 | 0 | – |
